According to the supplement of paper PMC10849652:
The list shows a part of the results.

Sequences of proteins named here, by UniProt entry; tags and fusion partners are left off. A change or cut given only in a name is not applied to a line headed by its entry.
UniProt P48723: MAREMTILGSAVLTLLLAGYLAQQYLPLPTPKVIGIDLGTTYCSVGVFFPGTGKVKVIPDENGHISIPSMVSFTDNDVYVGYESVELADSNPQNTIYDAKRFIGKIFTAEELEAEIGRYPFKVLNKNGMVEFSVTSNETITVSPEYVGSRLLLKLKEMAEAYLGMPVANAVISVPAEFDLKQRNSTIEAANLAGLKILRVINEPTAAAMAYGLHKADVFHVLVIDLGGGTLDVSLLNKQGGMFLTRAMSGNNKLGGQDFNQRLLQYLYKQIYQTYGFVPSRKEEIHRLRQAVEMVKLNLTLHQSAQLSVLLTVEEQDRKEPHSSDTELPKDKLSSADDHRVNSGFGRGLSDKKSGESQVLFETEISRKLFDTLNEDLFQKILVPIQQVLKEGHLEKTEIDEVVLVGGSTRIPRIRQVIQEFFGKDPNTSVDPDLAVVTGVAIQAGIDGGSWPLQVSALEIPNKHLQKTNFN
UniProt P17483: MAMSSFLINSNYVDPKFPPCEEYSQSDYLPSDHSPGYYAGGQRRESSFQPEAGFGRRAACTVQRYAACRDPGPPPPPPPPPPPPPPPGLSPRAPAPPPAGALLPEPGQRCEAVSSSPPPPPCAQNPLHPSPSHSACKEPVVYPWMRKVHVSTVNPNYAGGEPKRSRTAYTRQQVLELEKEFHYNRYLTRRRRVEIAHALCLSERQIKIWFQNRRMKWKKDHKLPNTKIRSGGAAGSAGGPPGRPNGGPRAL
UniProt Q9NP66: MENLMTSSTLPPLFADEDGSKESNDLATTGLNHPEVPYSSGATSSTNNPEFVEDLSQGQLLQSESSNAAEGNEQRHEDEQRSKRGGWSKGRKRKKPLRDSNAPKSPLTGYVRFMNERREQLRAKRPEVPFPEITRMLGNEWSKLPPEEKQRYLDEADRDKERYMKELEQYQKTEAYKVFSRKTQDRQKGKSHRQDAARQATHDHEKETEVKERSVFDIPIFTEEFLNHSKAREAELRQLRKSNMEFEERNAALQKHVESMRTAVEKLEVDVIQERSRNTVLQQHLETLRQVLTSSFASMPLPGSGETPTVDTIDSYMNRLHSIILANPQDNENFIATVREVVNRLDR
UniProt P31937: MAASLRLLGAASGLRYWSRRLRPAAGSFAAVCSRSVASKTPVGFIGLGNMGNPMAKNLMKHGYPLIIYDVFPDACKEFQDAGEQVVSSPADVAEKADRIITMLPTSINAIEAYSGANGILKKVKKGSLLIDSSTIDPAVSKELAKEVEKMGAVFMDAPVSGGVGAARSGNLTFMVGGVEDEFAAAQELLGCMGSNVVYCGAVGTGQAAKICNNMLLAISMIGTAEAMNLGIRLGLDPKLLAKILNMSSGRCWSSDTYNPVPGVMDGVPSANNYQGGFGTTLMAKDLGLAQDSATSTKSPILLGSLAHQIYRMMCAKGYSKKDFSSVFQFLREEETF
UniProt Q92902: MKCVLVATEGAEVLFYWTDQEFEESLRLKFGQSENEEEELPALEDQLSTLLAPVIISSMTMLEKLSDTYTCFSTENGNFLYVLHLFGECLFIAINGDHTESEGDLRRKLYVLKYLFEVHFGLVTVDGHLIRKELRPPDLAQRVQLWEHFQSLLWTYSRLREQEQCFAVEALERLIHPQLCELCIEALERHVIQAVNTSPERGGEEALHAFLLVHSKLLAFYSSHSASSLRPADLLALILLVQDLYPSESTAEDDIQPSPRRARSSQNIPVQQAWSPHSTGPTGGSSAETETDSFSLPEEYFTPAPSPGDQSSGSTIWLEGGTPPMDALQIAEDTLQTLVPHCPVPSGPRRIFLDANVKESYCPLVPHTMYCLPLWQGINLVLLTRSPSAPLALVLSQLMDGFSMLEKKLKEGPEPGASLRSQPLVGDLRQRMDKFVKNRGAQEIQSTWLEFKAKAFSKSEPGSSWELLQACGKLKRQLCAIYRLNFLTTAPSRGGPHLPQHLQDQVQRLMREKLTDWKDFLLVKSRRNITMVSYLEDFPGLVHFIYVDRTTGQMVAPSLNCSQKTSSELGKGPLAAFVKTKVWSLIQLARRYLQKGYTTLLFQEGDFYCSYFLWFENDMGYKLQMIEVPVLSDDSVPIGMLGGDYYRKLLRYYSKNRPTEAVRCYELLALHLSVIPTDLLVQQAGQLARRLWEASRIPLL
UniProt P54652, whole entry, looked up: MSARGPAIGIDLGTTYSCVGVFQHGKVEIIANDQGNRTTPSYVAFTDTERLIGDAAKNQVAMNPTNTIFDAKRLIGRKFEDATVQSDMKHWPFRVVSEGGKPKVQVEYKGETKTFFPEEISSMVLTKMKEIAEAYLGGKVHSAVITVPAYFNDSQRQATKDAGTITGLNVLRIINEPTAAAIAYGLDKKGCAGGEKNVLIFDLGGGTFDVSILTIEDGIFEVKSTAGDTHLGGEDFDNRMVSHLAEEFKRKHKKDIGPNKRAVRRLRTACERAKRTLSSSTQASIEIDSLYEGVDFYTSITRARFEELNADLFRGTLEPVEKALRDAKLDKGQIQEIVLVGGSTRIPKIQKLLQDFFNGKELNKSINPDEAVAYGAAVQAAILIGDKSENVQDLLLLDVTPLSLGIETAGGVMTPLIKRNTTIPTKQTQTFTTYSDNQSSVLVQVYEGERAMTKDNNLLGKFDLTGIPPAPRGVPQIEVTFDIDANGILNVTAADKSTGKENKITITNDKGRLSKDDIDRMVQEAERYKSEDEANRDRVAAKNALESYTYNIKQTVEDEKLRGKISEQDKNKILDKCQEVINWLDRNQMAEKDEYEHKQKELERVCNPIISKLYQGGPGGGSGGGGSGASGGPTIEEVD
UniProt H0YH80: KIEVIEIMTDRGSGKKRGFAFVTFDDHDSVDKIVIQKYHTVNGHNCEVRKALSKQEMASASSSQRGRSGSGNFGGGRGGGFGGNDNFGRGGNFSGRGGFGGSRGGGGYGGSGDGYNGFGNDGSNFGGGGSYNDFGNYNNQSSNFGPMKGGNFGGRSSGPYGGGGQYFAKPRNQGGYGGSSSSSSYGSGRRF
UniProt Q15651: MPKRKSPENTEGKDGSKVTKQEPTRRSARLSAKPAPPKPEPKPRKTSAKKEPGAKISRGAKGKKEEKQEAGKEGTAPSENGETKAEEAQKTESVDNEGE
UniProt Q12766: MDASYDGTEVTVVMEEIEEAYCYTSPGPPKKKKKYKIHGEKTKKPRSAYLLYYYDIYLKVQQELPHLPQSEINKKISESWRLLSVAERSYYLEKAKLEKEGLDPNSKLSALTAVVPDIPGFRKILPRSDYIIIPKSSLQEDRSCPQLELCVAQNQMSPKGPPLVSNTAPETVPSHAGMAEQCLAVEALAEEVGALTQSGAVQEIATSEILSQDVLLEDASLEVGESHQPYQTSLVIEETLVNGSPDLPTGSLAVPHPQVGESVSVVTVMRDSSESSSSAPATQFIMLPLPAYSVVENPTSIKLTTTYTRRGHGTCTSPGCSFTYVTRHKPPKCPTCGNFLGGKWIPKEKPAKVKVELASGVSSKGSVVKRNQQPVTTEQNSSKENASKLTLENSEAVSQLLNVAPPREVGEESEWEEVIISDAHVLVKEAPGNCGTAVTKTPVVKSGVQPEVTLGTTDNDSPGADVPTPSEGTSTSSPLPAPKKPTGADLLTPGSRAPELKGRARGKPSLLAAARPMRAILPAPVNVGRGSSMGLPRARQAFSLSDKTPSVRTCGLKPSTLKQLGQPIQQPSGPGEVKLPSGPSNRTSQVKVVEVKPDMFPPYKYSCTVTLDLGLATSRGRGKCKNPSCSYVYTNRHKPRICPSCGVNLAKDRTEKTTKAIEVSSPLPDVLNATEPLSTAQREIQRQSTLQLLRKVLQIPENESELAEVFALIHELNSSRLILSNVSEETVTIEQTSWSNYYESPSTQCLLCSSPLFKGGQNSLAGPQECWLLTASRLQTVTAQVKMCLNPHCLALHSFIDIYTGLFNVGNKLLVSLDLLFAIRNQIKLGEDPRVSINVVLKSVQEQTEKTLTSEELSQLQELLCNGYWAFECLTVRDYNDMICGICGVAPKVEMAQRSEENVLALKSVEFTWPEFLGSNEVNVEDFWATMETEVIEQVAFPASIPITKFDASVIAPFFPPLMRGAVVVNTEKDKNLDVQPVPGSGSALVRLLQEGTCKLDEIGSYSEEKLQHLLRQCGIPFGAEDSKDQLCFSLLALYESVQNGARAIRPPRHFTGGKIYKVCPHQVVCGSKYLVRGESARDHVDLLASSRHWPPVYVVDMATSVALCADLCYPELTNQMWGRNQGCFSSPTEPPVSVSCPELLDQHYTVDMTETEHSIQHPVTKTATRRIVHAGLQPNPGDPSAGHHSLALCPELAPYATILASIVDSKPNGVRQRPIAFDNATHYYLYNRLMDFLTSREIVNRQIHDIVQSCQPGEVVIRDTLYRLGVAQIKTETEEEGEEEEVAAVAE
UniProt P00738: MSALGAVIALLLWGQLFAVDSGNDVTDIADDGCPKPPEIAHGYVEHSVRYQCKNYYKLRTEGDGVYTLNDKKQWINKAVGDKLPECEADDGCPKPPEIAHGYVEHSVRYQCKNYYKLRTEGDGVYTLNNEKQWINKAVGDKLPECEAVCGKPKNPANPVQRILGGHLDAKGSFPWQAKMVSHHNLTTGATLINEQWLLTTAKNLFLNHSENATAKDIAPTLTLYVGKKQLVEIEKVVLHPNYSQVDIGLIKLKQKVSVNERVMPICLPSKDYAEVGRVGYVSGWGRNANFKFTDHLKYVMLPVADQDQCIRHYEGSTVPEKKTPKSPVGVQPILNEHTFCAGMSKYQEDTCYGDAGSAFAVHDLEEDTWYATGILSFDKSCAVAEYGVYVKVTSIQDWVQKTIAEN
UniProt Q14469: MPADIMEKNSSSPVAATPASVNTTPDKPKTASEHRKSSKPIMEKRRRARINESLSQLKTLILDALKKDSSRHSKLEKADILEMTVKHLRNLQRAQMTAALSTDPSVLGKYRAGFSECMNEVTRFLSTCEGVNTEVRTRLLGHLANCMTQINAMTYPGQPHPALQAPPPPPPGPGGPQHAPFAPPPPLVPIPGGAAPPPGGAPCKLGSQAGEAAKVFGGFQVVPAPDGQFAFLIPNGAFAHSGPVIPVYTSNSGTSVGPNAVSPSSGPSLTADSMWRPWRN
UniProt Q9NRZ9: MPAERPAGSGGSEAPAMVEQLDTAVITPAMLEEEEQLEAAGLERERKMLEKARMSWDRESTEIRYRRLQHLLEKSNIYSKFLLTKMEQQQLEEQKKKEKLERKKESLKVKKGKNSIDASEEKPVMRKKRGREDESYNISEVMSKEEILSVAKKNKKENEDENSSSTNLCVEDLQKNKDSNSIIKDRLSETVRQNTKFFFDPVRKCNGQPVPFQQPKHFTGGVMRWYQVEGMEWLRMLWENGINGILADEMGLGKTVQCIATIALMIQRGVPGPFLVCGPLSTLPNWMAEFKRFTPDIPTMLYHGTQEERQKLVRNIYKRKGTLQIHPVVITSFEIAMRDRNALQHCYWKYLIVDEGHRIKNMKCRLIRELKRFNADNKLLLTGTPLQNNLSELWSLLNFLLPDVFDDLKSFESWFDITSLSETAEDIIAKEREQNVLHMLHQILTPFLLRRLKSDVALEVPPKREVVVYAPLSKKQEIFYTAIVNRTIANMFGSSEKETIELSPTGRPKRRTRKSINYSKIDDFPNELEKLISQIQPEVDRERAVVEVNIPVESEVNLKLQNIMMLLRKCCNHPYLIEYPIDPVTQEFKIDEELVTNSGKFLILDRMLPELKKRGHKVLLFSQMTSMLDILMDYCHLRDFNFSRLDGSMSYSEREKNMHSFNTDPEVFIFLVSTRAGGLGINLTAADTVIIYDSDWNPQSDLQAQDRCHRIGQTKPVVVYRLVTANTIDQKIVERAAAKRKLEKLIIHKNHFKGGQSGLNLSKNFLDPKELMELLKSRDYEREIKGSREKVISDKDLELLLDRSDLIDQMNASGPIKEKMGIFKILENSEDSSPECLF
UniProt P14210, whole entry, looked up: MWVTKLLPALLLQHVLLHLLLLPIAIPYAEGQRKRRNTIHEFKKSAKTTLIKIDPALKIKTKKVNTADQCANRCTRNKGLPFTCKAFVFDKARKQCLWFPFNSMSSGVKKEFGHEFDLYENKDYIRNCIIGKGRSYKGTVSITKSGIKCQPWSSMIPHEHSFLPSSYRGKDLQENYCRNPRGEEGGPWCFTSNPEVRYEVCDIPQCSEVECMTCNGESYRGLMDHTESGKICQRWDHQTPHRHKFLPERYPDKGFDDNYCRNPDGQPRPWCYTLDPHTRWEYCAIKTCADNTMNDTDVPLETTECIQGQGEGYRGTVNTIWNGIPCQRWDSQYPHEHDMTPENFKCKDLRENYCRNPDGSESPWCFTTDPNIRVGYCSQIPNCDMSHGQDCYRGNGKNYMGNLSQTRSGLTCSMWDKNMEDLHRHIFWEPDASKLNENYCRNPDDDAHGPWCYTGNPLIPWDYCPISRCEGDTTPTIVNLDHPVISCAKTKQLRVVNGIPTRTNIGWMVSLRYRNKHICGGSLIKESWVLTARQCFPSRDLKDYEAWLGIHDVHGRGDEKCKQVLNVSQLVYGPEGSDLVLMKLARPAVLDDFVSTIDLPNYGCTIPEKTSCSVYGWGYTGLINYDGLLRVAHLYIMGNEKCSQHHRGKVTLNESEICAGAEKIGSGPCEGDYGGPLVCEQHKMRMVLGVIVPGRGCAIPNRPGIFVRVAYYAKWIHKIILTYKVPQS

Legend:
Test in all cases: log2 fold change, soluble protein after heating vs DMSO (PISA); higher = thermal stabilisation; K562 lysate, 10 uM; active = over 0.2 and 3.5 SD of the protein, either way, in both replicates (recomputed)
vemurafenib = compound: CCCS(=O)(=O)Nc1ccc(F)c(C(=O)c2c[nH]c3ncc(-c4ccc(Cl)cc4)cc23)c1F [vemurafenib]
Outline: (§1)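 Soluble protein was defined as the supernatant remaining after 21,000xg for 90 min, following pooling of heated aliquots and adjustment to 0.5% NP-40 at 4°C. Before that, crude K562 extract at 1 mg/mL protein in PBS pH 7.4 with 1 mM MgCl2 was treated with 10 μM compound for 30 min and heated for 3 min across 48°C-58°C. Quantification used TMTpro 16plex LC-MS/MS with channel sums equalised, and values are log-two fold changes in thermal stability relative to solvent controls from duplicates.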

[1] = compound: CCCS(=O)(=O)Nc1ccc(F)c(C(=O)c2c[nH]c3ncc(Cl)cc23)c1F
Outline: as §1

barasertib = compound: CCN(CCCOc1ccc2c(Nc3cc(CC(=O)Nc4cccc(F)c4)[nH]n3)ncnc2c1)CCOP(=O)(O)O [barasertib]
Outline: as §1

[2] = compound: CC[C@@H]1C(=O)N(C)c2cnc(Nc3ccc(C(=O)NC4CCN(C)CC4)cc3OC)nc2N1C1CCCC1
Outline: as §1

volasertib = compound: CC[C@@H]1C(=O)N(C)c2cnc(Nc3ccc(C(=O)N[C@H]4CC[C@H](N5CCN(CC6CC6)CC5)CC4)cc3OC)nc2N1C(C)C [volasertib]
Outline: as §1

[3] = compound: CCn1c(C(=O)N(C2CC2)C2CC2)cc2c3c(ncn3C)c(Nc3cc(C)n(C)n3)nc21
Outline: as §1

[4] = compound: CCn1cc(-c2ccnc3[nH]c(-c4cccc(CN(C)C)c4)cc23)c(-c2ccc(NC(=O)N(C)C)cc2)n1
Outline: as §1

[5] = compound: CN1CCC(CNc2ccc3ncc(-c4cccc(OC(F)(F)F)c4)n3n2)CC1
Outline: as §1

saracatinib = compound: CN1CCN(CCOc2cc(OC3CCOCC3)c3c(Nc4c(Cl)ccc5c4OCO5)ncnc3c2)CC1 [saracatinib]
Outline: as §1

sotrastaurin = compound: CN1CCN(c2nc(C3=C(c4c[nH]c5ccccc45)C(=O)NC3=O)c3ccccc3n2)CC1 [sotrastaurin]
Outline: as §1

Row | Target | log2 fold change (vemurafenib) | log2 fold change [1] | log2 fold change (barasertib) | log2 fold change [2] | log2 fold change (volasertib) | log2 fold change [3] | log2 fold change [4] | log2 fold change [5] | log2 fold change (saracatinib) | log2 fold change (sotrastaurin)
1 | HSPA13 (UniProt P48723) | inactive: -0.026 | inactive: 0.031 | inactive: -0.018 | inactive: -0.025 | inactive: -0.031 | inactive: 0.043 | inactive: 0 | inactive: -0.046 | inactive: 0.015 | inactive: -0.002
2 | HNRNPC (UniProt P07910) | inactive: -0.002 | inactive: 0.025 | inactive: -0.012 | inactive: 0.02 | inactive: -0.026 | inactive: -0.028 | inactive: 0.296 | inactive: -0.012 | inactive: -0.013 | inactive: 0.015
3 | HOXB4 (UniProt P17483) | inactive: 0.06 | inactive: 0.026 | inactive: 0.098 | inactive: 0.032 | inactive: -0.034 | inactive: 0.07 | inactive: -0.025 | inactive: 0.055 | inactive: 0.029 | inactive: -0.047
4 | HNRNPH2 (UniProt P55795) | inactive: -0.004 | inactive: 0.025 | inactive: -0.003 | inactive: 0.05 | inactive: -0.056 | inactive: 0.008 | inactive: -0.01 | inactive: -0.056 | inactive: -0.025 | inactive: -0.074
5 | HMG20A (UniProt Q9NP66) | inactive: -0.008 | inactive: 0.031 | inactive: 0.038 | inactive: 0.071 | inactive: -0.035 | inactive: -0.022 | inactive: -0.005 | inactive: 0.007 | inactive: 0.013 | inactive: 0.024
6 | HELZ (UniProt P42694) | inactive: 0.019 | inactive: 0.032 | inactive: 0.027 | inactive: 0.042 | inactive: -0.117 | inactive: 0.028 | inactive: -0.099 | inactive: 0.046 | inactive: -0.001 | inactive: 0.028
7 | HNRNPA3 (UniProt P51991) | inactive: -0.075 | inactive: -0.001 | inactive: -0.001 | inactive: -0.032 | inactive: -0.005 | inactive: 0.055 | inactive: -0.054 | inactive: -0.02 | inactive: -0.042 | inactive: -0.026
8 | HNRNPUL1 (UniProt Q9BUJ2) | inactive: -0.042 | inactive: 0.005 | inactive: -0.004 | inactive: -0.032 | inactive: 0.005 | inactive: 0.034 | inactive: 0.017 | inactive: 0.019 | inactive: 0.041 | inactive: 0.014
9 | HIBADH (UniProt P31937) | inactive: -0.001 | inactive: 0.019 | inactive: -0.055 | inactive: 0.013 | inactive: -0.004 | inactive: -0.001 | inactive: 0.035 | inactive: 0.008 | inactive: -0.005 | inactive: 0.012
10 | HMGA1 (UniProt P17096) | inactive: 0.023 | inactive: -0.011 | inactive: -0.05 | inactive: 0.051 | inactive: 0.02 | inactive: -0.04 | active: -0.323 | inactive: 0.131 | inactive: -0.001 | inactive: 0.012
11 | HPS1 (UniProt Q92902) | inactive: 0.093 | inactive: 0.125 | inactive: 0.023 | inactive: -0.037 | inactive: -0.008 | inactive: 0.014 | inactive: -0.025 | inactive: 0.031 | inactive: 0.086 | inactive: -0.007
12 | HECTD4 (UniProt J3KPF0) | inactive: 0.04 | inactive: 0.035 | inactive: 0.014 | inactive: 0.009 | inactive: -0.09 | inactive: 0.037 | inactive: 0.007 | inactive: 0.043 | inactive: 0.006 | inactive: -0.024
13 | HSPA2 (UniProt P54652) | inactive: 0.122 | inactive: -0.027 | inactive: -0.163 | inactive: -0.012 | inactive: 0 | inactive: -0.087 | inactive: -0.257 | inactive: 0.281 | inactive: 0.011 | inactive: 0.062
14 | HNRNPM (UniProt P52272) | inactive: -0.017 | inactive: -0.013 | inactive: 0.079 | inactive: 0.027 | inactive: -0.107 | inactive: 0.046 | inactive: -0.017 | inactive: -0.01 | inactive: 0.055 | inactive: 0.024
15 | HNRNPA1 (UniProt H0YH80) | inactive: 0.038 | inactive: 0.09 | inactive: 0.064 | inactive: -0.013 | inactive: 0.014 | inactive: 0.024 | inactive: 0.007 | inactive: 0.118 | inactive: 0.029 | inactive: 0.095
16 | HIGD2A (UniProt Q9BW72) |  |  |  |  |  |  | inactive: 0.007 | inactive: 0.166 | inactive: 0.146 | inactive: 0.123
17 | HNMT (UniProt P50135) |  | inactive: -0.021 | inactive: 0.039 | inactive: -0.249 | inactive: -0.042 |  | inactive: 0.026 | inactive: 0.009 | inactive: 0.124 | 
18 | HMGN3 (UniProt Q15651) |  | inactive: -0.028 | inactive: -0.175 |  | inactive: 0.034 | inactive: -0.059 | inactive: -0.071 | inactive: 0.102 | inactive: -0.044 | inactive: 0.038

Reformatted: entries from further up
Row,Target,log2 fold change (vemurafenib),log2 fold change [1],log2 fold change (barasertib),log2 fold change [2],log2 fold change (volasertib),log2 fold change [3],log2 fold change [4],log2 fold change [5],log2 fold change (saracatinib),log2 fold change (sotrastaurin)
5,HMG20A (UniProt Q9NP66),inactive: -0.008,inactive: 0.031,inactive: 0.038,inactive: 0.071,inactive: -0.035,inactive: -0.022,inactive: -0.005,inactive: 0.007,inactive: 0.013,inactive: 0.024
8,HNRNPUL1 (UniProt Q9BUJ2),inactive: -0.042,inactive: 0.005,inactive: -0.004,inactive: -0.032,inactive: 0.005,inactive: 0.034,inactive: 0.017,inactive: 0.019,inactive: 0.041,inactive: 0.014

Carrying on:

Row | Target | log2 fold change (vemurafenib) | log2 fold change [1] | log2 fold change (barasertib) | log2 fold change [2] | log2 fold change (volasertib) | log2 fold change [3] | log2 fold change [4] | log2 fold change [5] | log2 fold change (saracatinib) | log2 fold change (sotrastaurin)
19 | HRAS (UniProt P01112) |  | inactive: 0.008 |  | inactive: 0.078 | inactive: -0.041 | inactive: -0.068 |  |  | inactive: -0.008 | inactive: -0.037
20 | HMGXB3 (UniProt Q12766) |  |  |  | inactive: 0.018 |  |  |  |  |  | 
21 | HECW2 (UniProt Q9P2P5) | inactive: 0.026 |  |  | inactive: -0.213 |  | inactive: -0.04 |  |  | inactive: 0.055 | inactive: 0.065
22 | HLA-DRA |  |  |  | inactive: 0.139 |  |  |  |  |  | 
23 | HP (UniProt P00738) |  |  |  |  |  | inactive: -0.104 | inactive: 0.869 | inactive: -0.73 | inactive: -0.106 | 
24 | HGFAC (UniProt Q04756) |  |  |  |  |  |  | inactive: 0.085 | inactive: 0.052 |  | 
25 | HES1 (UniProt Q14469) |  | inactive: 0.066 |  | inactive: -0.129 | inactive: 0.022 | inactive: 0.526 | inactive: 0.281 | inactive: 0.106 | inactive: -0.224 | 
26 | HELLS (UniProt Q9NRZ9) |  |  |  | inactive: 0.104 |  | inactive: -0.025 |  |  | inactive: -0.015 | inactive: -0.043
27 | HPS6 (UniProt Q86YV9) |  |  |  | inactive: -0.01 |  |  | inactive: -0.169 | inactive: -0.277 | inactive: 0.165 | inactive: -0.04
28 | HOMER3 (UniProt Q9NSC5) |  | inactive: 0.123 | inactive: -0.129 |  | inactive: -0.011 |  | inactive: 0.037 | inactive: -0.071 |  | inactive: 0.028
29 | HSP90AA2P (UniProt Q14568) |  |  |  | inactive: 0.085 |  |  |  |  |  | inactive: 0.119
30 | HPGD (UniProt P15428) |  |  |  | inactive: 0.05 |  |  | inactive: -0.08 | inactive: 0.015 | inactive: -0.103 | 
31 | HMGCR isoform 3 (UniProt P04035) |  |  |  | inactive: -0.018 |  |  |  |  |  | inactive: -0.028
32 | HNRNPL, A0A3B3ITJ4 |  | inactive: 0.087 | inactive: 0.14 |  | inactive: -0.072 |  |  |  |  | 
33 | HINFP (UniProt Q9BQA5) |  |  |  |  |  |  |  |  |  | inactive: 0.046
34 | HGF (UniProt P14210) |  |  |  |  |  | inactive: 0.011 | inactive: 0.154 | inactive: 0.037 |  | inactive: -0.09
35 | HELZ2 (UniProt Q9BYK8) | inactive: -0.02 |  |  |  |  |  |  |  |  | inactive: -0.28
36 | HOOK2 (UniProt Q96ED9) |  | inactive: 0.043 | inactive: 0.227 |  | inactive: -0.014 |  | inactive: -0.028 | inactive: -0.232 | inactive: -0.019 | 
